System: DYT1 patient plasma derived EVs
Assay: Plasma-derived EV proteomics (ExoQuick ULTRA, DIA LC/MS/MS), DYT1 vs Healthy Controls
Design: species or system human
Conditions: for Mean DYT1 / Mean HC: protein abundance; for Mean DYT1: DYT1 patients; for Mean HC: healthy controls (HC); for Log2_FC: protein level, human patient derived EVs by genotype
Experimental: Data was obtained for extracellular vesicles using previously acquired samples. The ExoQuick® ULTRA EV Isolation System was used to fractionate and enrich EVs from plasma. Isolated plasma EV samples were then submitted to proteomic analysis by the Duke Proteomics and Metabolomics Core Facility (DPMCF). At the DPMCF, quantitative (LC/MS/MS) was performed on 500 ng of each sample, using an EvoSep One UPLC system coupled to a Thermo Orbitrap Astral high-resolution accurate mass tandem mass spectrometer (Thermo). Briefly, the sample was eluted directly from an Evotip which was subjected to a low organic wash and then subjected to an analytical separation using a 1.7 μm EvoSep 150 um ID×15 cm endurance (EveoSep) column running an SPD30 gradient from approximately 5 to 30% acetonitrile with 0.1% formic acid with a column temperature of 50 C. Data collection on the Orbitrap Astral mass spectrometer was performed in a data-independent acquisition (DIA) mode of acquisition with a r=240,000 (@m/z 200) full MS scan from m/z 380-980 with a target AGC value of 4e5 ions. Fixed DIA, windows of 4 m/z from m/z 380 to 980 DIA MS/MS scans were acquired in the Astral with a target AGC value of 5e4 and a max fill time of 6 ms. HCD collision energy setting of 27% was used for all MS2 scans.

B1: OBP2A (protein, UniProt Q9NY56 16-170, looked up)
Odorant-binding protein 2a: LSFTLEEEDITGTWYVKAMVVDKDFPEDRRPRKVSPVKVTALGGGNLEATFTFMREDRCIQKKILMRKTEEPGKFSAYGGRKLIYLQELPGTDDYVFYCKDQRRGGLRYMGKLVGRNPNTNLEALEEFKKLVQHKGLSEEDIFMPLQTGSCVLEH
Log2FC (DYT1 patients as compared to healthy controls): 1.9446 | Mean DYT1: 8.456 | Mean HC: 6.51

B2: KRT33A (protein, UniProt O76009 1-404, looked up)
Keratin, type I cuticular …: MSYSCGLPSLSCRTSCSSRPCVPPSCHGCTLPGACNIPANVSNCNWFCEGSFNGSEKETMQFLNDRLASYLEKVRQLERDNAELENLIRERSQQQEPLVCASYQSYFKTIEELQQKILCSKSENARLVVQIDNAKLASDDFRTKYETELSLRQLVESDINGLRRILDELTLCRSDLEAQVESLKEELLCLKQNHEQEVNTLRCQLGDRLNVEVDAAPTVDLNQVLNETRSQYEALVETNRREVEQWFATQTEELNKQVVSSSEQLQSYQAEIIELRRTVNALEIELQAQHNLRDSLENTLTESEARYSSQLSQVQRLITNVESQLAEIRSDLERQNQEYQVLLDVRARLECEINTYRSLLESEDCKLPSNPCATTNACDKSTGPCISNPCGLRARCGPCNTFGY
Mean DYT1: 4.309 | Mean HC: 5.29

B3: SP110 (protein, UniProt Q9HB58 1-689, looked up)
Sp110 nuclear body protein: MFTMTRAMEEALFQHFMHQKLGIAYAIHKPFPFFEGLLDNSIITKRMYMESLEACRNLIPVSRVVHNILTQLERTFNLSLLVTLFSQINLREYPNLVTIYRSFKRVGASYEWQSRDTPILLEAPTGLAEGSSLHTPLALPPPQPPQPSCSPCAPRVSEPGTSSQQSDEILSESPSPSDPVLPLPALIQEGRSTSVTNDKLTSKMNAEEDSEEMPSLLTSTVQVASDNLIPQIRDKEDPQEMPHSPLGSMPEIRDNSPEPNDPEEPQEVSSTPSDKKGKKRKRCIWSTPKRRHKKKSLPGGTASSRHGIQKKLKRVDQVPQKKDDSTCNSTVETRAQKARTECARKSRSEEIIDGTSEMNEGKRSQKTPSTPRRVTQGAASPGHGIQEKLQVVDKVTQRKDDSTWNSEVMMRVQKARTKCARKSRLKEKKKEKDICSSSKRRFQKNIHRRGKPKSDTVDFHCSKLPVTCGEAKGILYKKKMKHGSSVKCIRNEDGTWLTPNEFEVEGKGRNAKNWKRNIRCEGMTLGELLKRKNSDECEVCCQGGQLLCCGTCPRVFHEDCHIPPVEAKRMLWSCTFCRMKRSSGSQQCHHVSKTLERQMQPQDQLIRDYGEPFQEAMWLDLVKERLITEMYTVAWFVRDMRLMFRNHKTFYKASDFGQVGLDLEAEFEKDLKDVLGFHEANDGGFWTLP
Mean DYT1: 8.490 | Mean HC: 9.75

B4: ABCB9 (protein, UniProt Q9NP78 1-766, looked up)
ABC-type oligopeptide …: MRLWKAVVVTLAFMSVDICVTTAIYVFSHLDRSLLEDIRHFNIFDSVLDLWAACLYRSCLLLGATIGVAKNSALGPRRLRASWLVITLVCLFVGIYAMVKLLLFSEVRRPIRDPWFWALFVWTYISLGASFLLWWLLSTVRPGTQALEPGAATEAEGFPGSGRPPPEQASGATLQKLLSYTKPDVAFLVAASFFLIVAALGETFLPYYTGRAIDGIVIQKSMDQFSTAVVIVCLLAIGSSFAAGIRGGIFTLIFARLNIRLRNCLFRSLVSQETSFFDENRTGDLISRLTSDTTMVSDLVSQNINVFLRNTVKVTGVVVFMFSLSWQLSLVTFMGFPIIMMVSNIYGKYYKRLSKEVQNALARASNTAEETISAMKTVRSFANEEEEAEVYLRKLQQVYKLNRKEAAAYMYYVWGSGLTLLVVQVSILYYGGHLVISGQMTSGNLIAFIIYEFVLGDCMESVGSVYSGLMQGVGAAEKVFEFIDRQPTMVHDGSLAPDHLEGRVDFENVTFTYRTRPHTQVLQNVSFSLSPGKVTALVGPSGSGKSSCVNILENFYPLEGGRVLLDGKPISAYDHKYLHRVISLVSQEPVLFARSITDNISYGLPTVPFEMVVEAAQKANAHGFIMELQDGYSTETGEKGAQLSGGQKQRVAMARALVRNPPVLILDEATSALDAESEYLIQQAIHGNLQKHTVLIIAHRLSTVEHAHLIVVLDKGRVVQQGTHQQLLAQGGLYAKLVQRQMLGLQPAADFTAGHNEPVANGSHKA
Mean DYT1: 9.723 | Mean HC: 11.73

B5: SEC31A (protein, UniProt O94979 1-1220, looked up)
Protein transport protein …: MKLKEVDRTAMQAWSPAQNHPIYLATGTSAQQLDATFSTNASLEIFELDLSDPSLDMKSCATFSSSHRYHKLIWGPYKMDSKGDVSGVLIAGGENGNIILYDPSKIIAGDKEVVIAQNDKHTGPVRALDVNIFQTNLVASGANESEIYIWDLNNFATPMTPGAKTQPPEDISCIAWNRQVQHILASASPSGRATVWDLRKNEPIIKVSDHSNRMHCSGLAWHPDVATQMVLASEDDRLPVIQMWDLRFASSPLRVLENHARGILAIAWSMADPELLLSCGKDAKILCSNPNTGEVLYELPTNTQWCFDIQWCPRNPAVLSAASFDGRISVYSIMGGSTDGLRQKQVDKLSSSFGNLDPFGTGQPLPPLQIPQQTAQHSIVLPLKKPPKWIRRPVGASFSFGGKLVTFENVRMPSHQGAEQQQQQHHVFISQVVTEKEFLSRSDQLQQAVQSQGFINYCQKKIDASQTEFEKNVWSFLKVNFEDDSRGKYLELLGYRKEDLGKKIALALNKVDGANVALKDSDQVAQSDGEESPAAEEQLLGEHIKEEKEESEFLPSSGGTFNISVSGDIDGLITQALLTGNFESAVDLCLHDNRMADAIILAIAGGQELLARTQKKYFAKSQSKITRLITAVVMKNWKEIVESCDLKNWREALAAVLTYAKPDEFSALCDLLGTRLENEGDSLLQTQACLCYICAGNVEKLVACWTKAQDGSHPLSLQDLIEKVVILRKAVQLTQAMDTSTVGVLLAAKMSQYANLLAAQGSIAAALAFLPDNTNQPNIMQLRDRLCRAQGEPVAGHESPKIPYEKQQLPKGRPGPVAGHHQMPRVQTQQYYPHGENPPPPGFIMHGNVNPNAAGQLPTSPGHMHTQVPPYPQPQPYQPAQPYPFGTGGSAMYRPQQPVAPPTSNAYPNTPYISSASSYTGQSQLYAAQHQASSPTSSPATSFPPPPSSGASFQHGGPGAPPSSSAYALPPGTTGTLPAASELPASQRTGPQNGWNDPPALNRVPKKKKMPENFMPPVPITSPIMNPLGDPQSQMLQQQPSAPVPLSSQSSFPQPHLPGGQPFHGVQQPLGQTGMPPSFSKPNIEGAPGAPIGNTFQHVQSLPTKKITKKPIPDEHLILKTTFEDLIQRCLSSATDPQTKRKLDDASKRLEFLYDKLREQTLSPTITSGLHNIARSIETRNYSEGLTMHTHIVSTSNFSETSAFMPVLKVVLTQANKLGV
Directionality (Hs. Plasma EVs (DYT1/WT)): DOWN | Log2_FC (Hs. Plasma EVs (DYT1/WT)): -1.128 | Hs. Plasma EVs (DYT1/WT) (directionality of protein change, human plasma derived EVs, DYT1 vs WT(HC)): DOWN | Mean DYT1: 8.231 | Mean HC: 9.36

B6: TFB1M (protein, UniProt Q8WVM0 28-346, looked up)
Dimethyladenosine transferase …: QAAKQLSQNFLLDLRLTDKIVRKAGNLTNAYVYEVGPGPGGITRSILNADVAELLVVEKDTRFIPGLQMLSDAAPGKLRIVHGDVLTFKVEKAFSESLKRPWEDDPPNVHIIGNLPFSVSTPLIIKWLENISCRDGPFVYGRTQMTLTFQKEVAERLAANTGSKQRSRLSVMAQYLCNVRHIFTIPGQAFVPKPEVDVGVVHFTPLIQPKIEQPFKLVEKVVQNVFQFRRKYCHRGLRMLFPEAQRLESTGRLLELADIDPTLRPRQLSISHFKSLCDVYRKMCDEDPQLFAYNFREELKRRKSKNEEKEEDDAENYRL
Mean DYT1: 7.004 | Mean HC: 5.26

B7: WDR26 (protein, UniProt Q9H7D7 1-661, looked up)
WD repeat-containing protein …: MQANGAGGGGGGGGGGGGGGGGGGGQGQTPELACLSAQNGESSPSSSSSAGDLAHANGLLPSAPSAASNNSNSLNVNNGVPGGAAAASSATVAAASATTAASSSLATPELGSSLKKKKRLSQSDEDVIRLIGQHLNGLGLNQTVDLLMQESGCRLEHPSATKFRNHVMEGDWDKAENDLNELKPLVHSPHAIVVRGALEISQTLLGIIVRMKFLLLQQKYLEYLEDGKVLEALQVLRCELTPLKYNTERIHVLSGYLMCSHAEDLRAKAEWEGKGTASRSKLLDKLQTYLPPSVMLPPRRLQTLLRQAVELQRDRCLYHNTKLDNNLDSVSLLIDHVCSRRQFPCYTQQILTEHCNEVWFCKFSNDGTKLATGSKDTTVIIWQVDPDTHLLKLLKTLEGHAYGVSYIAWSPDDNYLVACGPDDCSELWLWNVQTGELRTKMSQSHEDSLTSVAWNPDGKRFVTGGQRGQFYQCDLDGNLLDSWEGVRVQCLWCLSDGKTVLASDTHQRIRGYNFEDLTDRNIVQEDHPIMSFTISKNGRLALLNVATQGVHLWDLQDRVLVRKYQGVTQGFYTIHSCFGGHNEDFIASGSEDHKVYIWHKRSELPIAELTGHTRTVNCVSWNPQIPSMMASASDDGTVRIWGPAPFIDHQNIEEECSSMDS
Log2_FC (Hs. Plasma EVs (DYT1/WT)): 0.6824 | Mean DYT1: 5.387 | Mean HC: 4.70

B8: C16orf86 (protein, UniProt Q6ZW13 1-317, looked up)
Uncharacterized protein …: MASAGAERRPGVQEATVVGQGQLTEEPGSAQTSECPVAGDQFLVPAHEARGTQSEDQRPAGAASESELQEEGPKLGEERPKPHAGALEERGPRPVVSIVRPRHGPKRKPVKSLSLPGLRAHLKAEAELPPKLPLQEEEPEDSQSEPSPSAKQHKKAKKRKSLGAPVLHAVASMVSAPLETLRLERKAQRLRPLYQYVNYCNPELNQAGKGDGEAEVEAEAELAPVPEEGGVEQLQALLPLAGELGPGLALPCPSPLVTPTHALAPLGEEAGEEPGGLPSLGVSDHKAEVDKSTQVDIDKMLSVCTAPLVPPLSPQYK
Mean DYT1: 10.022 | Mean HC: 8.57

Source: patent US20260266848A1, “COMPOSITIONS AND METHODS FOR DIAGNOSING AND TREATING DYSTONIA” (Duke University, priority 2023, published 2026)
